Publication PMC11201989
Results are given in words; binding and its absence hold for the method and conditions named. In cells and extracts the contact can be indirect. Some binding calls cover weakened binding; strength is not graded here. Sequences can lack the tags named with a protein.

By UniProt entry, the sequences of proteins in these tests, tags left out. Residues count along the entry.
UniProt Q9NZQ7, residues 19-290: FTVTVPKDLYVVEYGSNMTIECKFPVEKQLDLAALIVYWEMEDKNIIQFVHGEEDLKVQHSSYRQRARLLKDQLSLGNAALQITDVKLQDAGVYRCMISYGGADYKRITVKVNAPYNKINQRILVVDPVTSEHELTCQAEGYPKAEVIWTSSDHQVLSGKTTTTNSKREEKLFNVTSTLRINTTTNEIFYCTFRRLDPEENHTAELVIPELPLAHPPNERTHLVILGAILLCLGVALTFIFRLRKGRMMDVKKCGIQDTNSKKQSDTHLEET

T1: BBS5 (human (endogenous in HEK293T)) (UniProt Q8N3I7)
T1 sequence: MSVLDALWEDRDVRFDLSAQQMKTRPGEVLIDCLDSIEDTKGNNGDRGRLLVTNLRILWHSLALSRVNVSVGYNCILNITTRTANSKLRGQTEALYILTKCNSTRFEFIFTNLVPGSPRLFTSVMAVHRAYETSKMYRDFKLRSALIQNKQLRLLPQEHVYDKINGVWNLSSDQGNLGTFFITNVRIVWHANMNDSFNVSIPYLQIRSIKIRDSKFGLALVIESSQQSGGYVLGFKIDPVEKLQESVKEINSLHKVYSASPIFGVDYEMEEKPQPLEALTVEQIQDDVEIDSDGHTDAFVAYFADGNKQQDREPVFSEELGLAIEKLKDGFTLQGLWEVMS

T2: Myc-tagged PC-2 (polycystin 2) (UniProt Q13563)
T2 sequence: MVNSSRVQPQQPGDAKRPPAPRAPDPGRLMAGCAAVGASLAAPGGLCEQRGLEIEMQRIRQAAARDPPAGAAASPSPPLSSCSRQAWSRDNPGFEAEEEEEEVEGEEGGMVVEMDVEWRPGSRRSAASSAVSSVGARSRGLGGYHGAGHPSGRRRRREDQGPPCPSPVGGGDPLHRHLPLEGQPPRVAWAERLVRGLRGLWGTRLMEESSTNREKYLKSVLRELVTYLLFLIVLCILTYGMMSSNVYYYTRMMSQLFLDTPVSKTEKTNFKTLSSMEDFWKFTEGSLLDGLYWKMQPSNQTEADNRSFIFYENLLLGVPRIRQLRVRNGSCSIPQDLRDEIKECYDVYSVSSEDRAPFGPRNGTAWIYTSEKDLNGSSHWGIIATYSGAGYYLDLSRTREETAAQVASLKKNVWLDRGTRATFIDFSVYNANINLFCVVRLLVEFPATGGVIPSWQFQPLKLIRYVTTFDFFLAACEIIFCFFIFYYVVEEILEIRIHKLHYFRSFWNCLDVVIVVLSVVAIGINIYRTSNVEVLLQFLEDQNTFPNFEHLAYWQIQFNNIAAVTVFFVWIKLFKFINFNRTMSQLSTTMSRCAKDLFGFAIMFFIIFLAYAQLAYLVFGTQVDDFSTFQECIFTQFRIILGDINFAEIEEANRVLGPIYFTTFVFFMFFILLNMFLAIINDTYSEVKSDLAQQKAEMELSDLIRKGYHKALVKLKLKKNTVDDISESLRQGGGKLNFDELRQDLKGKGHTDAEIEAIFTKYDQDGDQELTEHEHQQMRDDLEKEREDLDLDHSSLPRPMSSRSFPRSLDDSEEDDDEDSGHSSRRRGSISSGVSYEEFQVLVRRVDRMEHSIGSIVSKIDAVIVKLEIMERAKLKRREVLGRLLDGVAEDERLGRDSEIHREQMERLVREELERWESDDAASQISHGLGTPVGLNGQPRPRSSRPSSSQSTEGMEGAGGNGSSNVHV


How the values were obtained:
Assay in all cases: co-IP; lysate of HEK293T cells (methods: HEK293) expressing GFP-PD-L1 or Myc-PC-2; lysis buffer 20 mM Tris-HCl pH 7.4, 150 mM NaCl, 10% glycerol, 1% Triton X-100; protein A agarose beads with anti-GFP, anti-Myc or anti-BBS5 antibody or isotype control, PBS with 5 mg/mL BSA, overnight at 4 °C; Western blot
[1] = target: T1, BBS5 (human (endogenous in HEK293T))
[2] = target: T2, Myc-tagged PC-2 (polycystin 2)
[3] = target: GFP-tagged PD-L1 (programmed death ligand 1) (UniProt Q9NZQ7)

| Molecule | binding [1] | binding [2] | binding [3] |
| --- | --- | --- | --- |
| GFP-tagged PD-L1 (programmed death ligand 1) (from UniProt Q9NZQ7 19-290) | binds | binds | – |
| BBS5 (protein, UniProt Q8N3I7 1-341) MSVLDALWEDRDVRFDLSAQQMKTRPGEVLIDCLDSIEDTKGNNGDRGRLLVTNLRILWHSLALSRVNVSVGYNCILNITTRTANSKLRGQTEALYILTKCNSTRFEFIFTNLVPGSPRLFTSVMAVHRAYETSKMYRDFKLRSALIQNKQLRLLPQEHVYDKINGVWNLSSDQGNLGTFFITNVRIVWHANMNDSFNVSIPYLQIRSIKIRDSKFGLALVIESSQQSGGYVLGFKIDPVEKLQESVKEINSLHKVYSASPIFGVDYEMEEKPQPLEALTVEQIQDDVEIDSDGHTDAFVAYFADGNKQQDREPVFSEELGLAIEKLKDGFTLQGLWEVMS | – | binds | binds |
| PC-2 (polycystin 2), as found with GFP-PD-L1 in Figure 6D (protein, UniProt Q13563 1-968) MVNSSRVQPQQPGDAKRPPAPRAPDPGRLMAGCAAVGASLAAPGGLCEQRGLEIEMQRIRQAAARDPPAGAAASPSPPLSSCSRQAWSRDNPGFEAEEEEEEVEGEEGGMVVEMDVEWRPGSRRSAASSAVSSVGARSRGLGGYHGAGHPSGRRRRREDQGPPCPSPVGGGDPLHRHLPLEGQPPRVAWAERLVRGLRGLWGTRLMEESSTNREKYLKSVLRELVTYLLFLIVLCILTYGMMSSNVYYYTRMMSQLFLDTPVSKTEKTNFKTLSSMEDFWKFTEGSLLDGLYWKMQPSNQTEADNRSFIFYENLLLGVPRIRQLRVRNGSCSIPQDLRDEIKECYDVYSVSSEDRAPFGPRNGTAWIYTSEKDLNGSSHWGIIATYSGAGYYLDLSRTREETAAQVASLKKNVWLDRGTRATFIDFSVYNANINLFCVVRLLVEFPATGGVIPSWQFQPLKLIRYVTTFDFFLAACEIIFCFFIFYYVVEEILEIRIHKLHYFRSFWNCLDVVIVVLSVVAIGINIYRTSNVEVLLQFLEDQNTFPNFEHLAYWQIQFNNIAAVTVFFVWIKLFKFINFNRTMSQLSTTMSRCAKDLFGFAIMFFIIFLAYAQLAYLVFGTQVDDFSTFQECIFTQFRIILGDINFAEIEEANRVLGPIYFTTFVFFMFFILLNMFLAIINDTYSEVKSDLAQQKAEMELSDLIRKGYHKALVKLKLKKNTVDDISESLRQGGGKLNFDELRQDLKGKGHTDAEIEAIFTKYDQDGDQELTEHEHQQMRDDLEKEREDLDLDHSSLPRPMSSRSFPRSLDDSEEDDDEDSGHSSRRRGSISSGVSYEEFQVLVRRVDRMEHSIGSIVSKIDAVIVKLEIMERAKLKRREVLGRLLDGVAEDERLGRDSEIHREQMERLVREELERWESDDAASQISHGLGTPVGLNGQPRPRSSRPSSSQSTEGMEGAGGNGSSNVHV | – | – | binds |
| Myc-tagged PC-2 (polycystin 2) (protein, UniProt Q13563 1-968) MVNSSRVQPQQPGDAKRPPAPRAPDPGRLMAGCAAVGASLAAPGGLCEQRGLEIEMQRIRQAAARDPPAGAAASPSPPLSSCSRQAWSRDNPGFEAEEEEEEVEGEEGGMVVEMDVEWRPGSRRSAASSAVSSVGARSRGLGGYHGAGHPSGRRRRREDQGPPCPSPVGGGDPLHRHLPLEGQPPRVAWAERLVRGLRGLWGTRLMEESSTNREKYLKSVLRELVTYLLFLIVLCILTYGMMSSNVYYYTRMMSQLFLDTPVSKTEKTNFKTLSSMEDFWKFTEGSLLDGLYWKMQPSNQTEADNRSFIFYENLLLGVPRIRQLRVRNGSCSIPQDLRDEIKECYDVYSVSSEDRAPFGPRNGTAWIYTSEKDLNGSSHWGIIATYSGAGYYLDLSRTREETAAQVASLKKNVWLDRGTRATFIDFSVYNANINLFCVVRLLVEFPATGGVIPSWQFQPLKLIRYVTTFDFFLAACEIIFCFFIFYYVVEEILEIRIHKLHYFRSFWNCLDVVIVVLSVVAIGINIYRTSNVEVLLQFLEDQNTFPNFEHLAYWQIQFNNIAAVTVFFVWIKLFKFINFNRTMSQLSTTMSRCAKDLFGFAIMFFIIFLAYAQLAYLVFGTQVDDFSTFQECIFTQFRIILGDINFAEIEEANRVLGPIYFTTFVFFMFFILLNMFLAIINDTYSEVKSDLAQQKAEMELSDLIRKGYHKALVKLKLKKNTVDDISESLRQGGGKLNFDELRQDLKGKGHTDAEIEAIFTKYDQDGDQELTEHEHQQMRDDLEKEREDLDLDHSSLPRPMSSRSFPRSLDDSEEDDDEDSGHSSRRRGSISSGVSYEEFQVLVRRVDRMEHSIGSIVSKIDAVIVKLEIMERAKLKRREVLGRLLDGVAEDERLGRDSEIHREQMERLVREELERWESDDAASQISHGLGTPVGLNGQPRPRSSRPSSSQSTEGMEGAGGNGSSNVHV | binds | – | – |
